The supplement of paper PMC10849652
This is one part of the list.

Protein sequences, listed by entry. Tags and fused reporters are not part of them. Lines headed by an entry give the natural chain unless they say otherwise; changes in a name come on top.
UniProt P13674: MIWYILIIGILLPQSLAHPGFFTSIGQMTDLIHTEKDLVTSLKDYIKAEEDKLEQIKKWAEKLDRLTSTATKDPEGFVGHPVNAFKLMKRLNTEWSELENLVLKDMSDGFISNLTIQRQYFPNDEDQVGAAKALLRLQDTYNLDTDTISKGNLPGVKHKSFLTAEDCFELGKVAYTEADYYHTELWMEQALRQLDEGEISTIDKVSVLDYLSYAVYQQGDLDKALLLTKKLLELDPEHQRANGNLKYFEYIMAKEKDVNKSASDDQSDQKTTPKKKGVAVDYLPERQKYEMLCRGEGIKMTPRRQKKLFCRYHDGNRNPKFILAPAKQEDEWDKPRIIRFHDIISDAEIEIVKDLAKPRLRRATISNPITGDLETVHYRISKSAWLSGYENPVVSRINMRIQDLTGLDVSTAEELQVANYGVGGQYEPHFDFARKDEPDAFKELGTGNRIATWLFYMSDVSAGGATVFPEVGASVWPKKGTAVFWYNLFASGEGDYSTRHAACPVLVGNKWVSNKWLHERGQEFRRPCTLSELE
UniProt Q96FW1, whole entry, looked up: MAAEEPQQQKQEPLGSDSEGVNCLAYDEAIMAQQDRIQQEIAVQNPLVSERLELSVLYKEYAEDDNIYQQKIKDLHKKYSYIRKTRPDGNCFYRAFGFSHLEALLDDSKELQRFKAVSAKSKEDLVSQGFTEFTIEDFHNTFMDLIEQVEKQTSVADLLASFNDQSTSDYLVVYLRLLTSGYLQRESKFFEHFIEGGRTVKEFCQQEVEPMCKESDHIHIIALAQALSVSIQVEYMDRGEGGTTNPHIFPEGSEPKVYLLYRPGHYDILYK
UniProt Q9BQG2: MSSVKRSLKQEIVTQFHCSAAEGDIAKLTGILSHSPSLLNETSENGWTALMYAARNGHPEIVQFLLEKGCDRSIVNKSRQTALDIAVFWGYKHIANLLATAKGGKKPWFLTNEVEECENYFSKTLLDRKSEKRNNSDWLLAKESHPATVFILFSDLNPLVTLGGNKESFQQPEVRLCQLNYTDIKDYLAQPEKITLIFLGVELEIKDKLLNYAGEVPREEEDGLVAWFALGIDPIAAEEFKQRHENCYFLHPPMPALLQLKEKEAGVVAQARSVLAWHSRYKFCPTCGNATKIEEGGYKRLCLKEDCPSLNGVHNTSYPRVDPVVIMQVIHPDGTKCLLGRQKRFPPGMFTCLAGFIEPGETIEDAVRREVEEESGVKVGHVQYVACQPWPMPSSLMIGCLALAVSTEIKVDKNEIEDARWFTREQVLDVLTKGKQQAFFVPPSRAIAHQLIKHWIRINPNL
UniProt Q9NPF4: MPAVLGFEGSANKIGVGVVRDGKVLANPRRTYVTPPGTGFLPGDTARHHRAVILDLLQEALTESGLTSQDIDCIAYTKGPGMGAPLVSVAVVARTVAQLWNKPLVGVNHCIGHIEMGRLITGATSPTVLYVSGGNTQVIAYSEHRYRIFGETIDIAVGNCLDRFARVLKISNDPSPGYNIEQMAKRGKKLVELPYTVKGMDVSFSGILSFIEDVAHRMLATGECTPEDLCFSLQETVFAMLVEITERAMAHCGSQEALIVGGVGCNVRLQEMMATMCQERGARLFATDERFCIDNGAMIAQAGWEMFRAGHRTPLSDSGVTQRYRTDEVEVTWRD
UniProt Q8NFH5: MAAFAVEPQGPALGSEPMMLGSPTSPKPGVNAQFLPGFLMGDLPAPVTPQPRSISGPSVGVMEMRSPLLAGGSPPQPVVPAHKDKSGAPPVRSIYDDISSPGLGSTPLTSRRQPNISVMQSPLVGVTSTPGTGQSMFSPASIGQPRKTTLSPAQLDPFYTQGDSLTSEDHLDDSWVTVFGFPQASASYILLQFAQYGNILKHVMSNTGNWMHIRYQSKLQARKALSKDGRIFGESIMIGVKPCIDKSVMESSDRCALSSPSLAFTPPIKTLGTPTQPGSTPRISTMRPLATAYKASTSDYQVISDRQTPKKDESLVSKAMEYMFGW
UniProt Q01968: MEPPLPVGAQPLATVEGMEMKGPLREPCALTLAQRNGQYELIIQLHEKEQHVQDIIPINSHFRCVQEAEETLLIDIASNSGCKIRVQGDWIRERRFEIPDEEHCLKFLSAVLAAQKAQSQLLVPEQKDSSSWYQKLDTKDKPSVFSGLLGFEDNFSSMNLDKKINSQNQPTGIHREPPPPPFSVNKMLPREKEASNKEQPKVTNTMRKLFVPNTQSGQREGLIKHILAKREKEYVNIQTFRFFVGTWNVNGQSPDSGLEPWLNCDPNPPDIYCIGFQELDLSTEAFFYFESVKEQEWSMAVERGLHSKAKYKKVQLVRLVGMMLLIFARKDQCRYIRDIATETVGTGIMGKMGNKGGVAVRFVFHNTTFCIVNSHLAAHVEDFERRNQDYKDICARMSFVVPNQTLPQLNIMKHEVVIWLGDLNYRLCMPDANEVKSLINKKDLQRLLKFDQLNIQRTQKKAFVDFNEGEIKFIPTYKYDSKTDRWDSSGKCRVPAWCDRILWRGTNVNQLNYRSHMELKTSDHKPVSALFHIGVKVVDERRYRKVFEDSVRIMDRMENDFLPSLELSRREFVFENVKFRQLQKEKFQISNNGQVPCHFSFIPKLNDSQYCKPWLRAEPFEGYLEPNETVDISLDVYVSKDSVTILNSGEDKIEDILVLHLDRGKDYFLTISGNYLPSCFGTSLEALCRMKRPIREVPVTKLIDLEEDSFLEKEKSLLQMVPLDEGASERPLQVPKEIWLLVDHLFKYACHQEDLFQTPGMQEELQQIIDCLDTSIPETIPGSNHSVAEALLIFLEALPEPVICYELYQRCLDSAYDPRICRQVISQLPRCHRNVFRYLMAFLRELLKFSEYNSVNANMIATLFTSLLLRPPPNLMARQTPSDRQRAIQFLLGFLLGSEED
UniProt O15294: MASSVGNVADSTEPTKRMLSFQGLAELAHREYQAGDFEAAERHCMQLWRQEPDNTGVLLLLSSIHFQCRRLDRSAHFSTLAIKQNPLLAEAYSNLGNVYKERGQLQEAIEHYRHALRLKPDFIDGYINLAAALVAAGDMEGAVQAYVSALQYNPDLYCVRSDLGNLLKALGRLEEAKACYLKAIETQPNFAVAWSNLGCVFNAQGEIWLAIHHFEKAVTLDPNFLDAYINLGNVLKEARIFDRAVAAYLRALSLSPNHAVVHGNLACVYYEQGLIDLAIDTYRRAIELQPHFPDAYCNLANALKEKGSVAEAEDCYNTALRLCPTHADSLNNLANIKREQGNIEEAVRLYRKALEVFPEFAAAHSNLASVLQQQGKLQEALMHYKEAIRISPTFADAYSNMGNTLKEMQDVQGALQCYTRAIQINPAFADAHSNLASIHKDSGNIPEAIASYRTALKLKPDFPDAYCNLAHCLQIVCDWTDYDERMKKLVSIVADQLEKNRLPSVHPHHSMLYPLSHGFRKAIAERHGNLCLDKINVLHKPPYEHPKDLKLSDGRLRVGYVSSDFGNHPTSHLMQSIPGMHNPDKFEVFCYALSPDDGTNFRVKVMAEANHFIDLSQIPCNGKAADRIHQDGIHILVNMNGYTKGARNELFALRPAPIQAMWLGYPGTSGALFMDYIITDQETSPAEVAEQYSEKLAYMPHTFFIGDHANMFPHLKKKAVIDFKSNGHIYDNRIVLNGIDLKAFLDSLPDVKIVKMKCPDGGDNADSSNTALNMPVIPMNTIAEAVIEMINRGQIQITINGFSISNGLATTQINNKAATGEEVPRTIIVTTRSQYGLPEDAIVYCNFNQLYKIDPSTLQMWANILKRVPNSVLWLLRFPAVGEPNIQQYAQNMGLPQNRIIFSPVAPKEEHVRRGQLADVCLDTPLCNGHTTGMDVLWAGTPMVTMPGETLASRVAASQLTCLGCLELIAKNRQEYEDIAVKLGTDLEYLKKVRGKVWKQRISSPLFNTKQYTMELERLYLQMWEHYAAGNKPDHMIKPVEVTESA
UniProt Q9NWU1, whole entry, looked up: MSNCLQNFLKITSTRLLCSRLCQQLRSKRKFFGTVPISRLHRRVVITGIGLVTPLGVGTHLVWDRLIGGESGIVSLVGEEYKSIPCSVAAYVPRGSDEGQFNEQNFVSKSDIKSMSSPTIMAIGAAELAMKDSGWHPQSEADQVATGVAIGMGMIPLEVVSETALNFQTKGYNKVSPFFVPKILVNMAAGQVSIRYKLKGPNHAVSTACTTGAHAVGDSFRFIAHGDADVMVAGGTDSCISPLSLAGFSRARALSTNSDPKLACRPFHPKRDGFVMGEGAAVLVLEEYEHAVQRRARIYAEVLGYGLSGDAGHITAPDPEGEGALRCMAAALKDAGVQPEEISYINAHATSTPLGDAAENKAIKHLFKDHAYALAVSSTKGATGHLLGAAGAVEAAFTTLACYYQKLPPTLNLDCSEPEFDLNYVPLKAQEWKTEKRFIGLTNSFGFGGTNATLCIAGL
UniProt Q8N573: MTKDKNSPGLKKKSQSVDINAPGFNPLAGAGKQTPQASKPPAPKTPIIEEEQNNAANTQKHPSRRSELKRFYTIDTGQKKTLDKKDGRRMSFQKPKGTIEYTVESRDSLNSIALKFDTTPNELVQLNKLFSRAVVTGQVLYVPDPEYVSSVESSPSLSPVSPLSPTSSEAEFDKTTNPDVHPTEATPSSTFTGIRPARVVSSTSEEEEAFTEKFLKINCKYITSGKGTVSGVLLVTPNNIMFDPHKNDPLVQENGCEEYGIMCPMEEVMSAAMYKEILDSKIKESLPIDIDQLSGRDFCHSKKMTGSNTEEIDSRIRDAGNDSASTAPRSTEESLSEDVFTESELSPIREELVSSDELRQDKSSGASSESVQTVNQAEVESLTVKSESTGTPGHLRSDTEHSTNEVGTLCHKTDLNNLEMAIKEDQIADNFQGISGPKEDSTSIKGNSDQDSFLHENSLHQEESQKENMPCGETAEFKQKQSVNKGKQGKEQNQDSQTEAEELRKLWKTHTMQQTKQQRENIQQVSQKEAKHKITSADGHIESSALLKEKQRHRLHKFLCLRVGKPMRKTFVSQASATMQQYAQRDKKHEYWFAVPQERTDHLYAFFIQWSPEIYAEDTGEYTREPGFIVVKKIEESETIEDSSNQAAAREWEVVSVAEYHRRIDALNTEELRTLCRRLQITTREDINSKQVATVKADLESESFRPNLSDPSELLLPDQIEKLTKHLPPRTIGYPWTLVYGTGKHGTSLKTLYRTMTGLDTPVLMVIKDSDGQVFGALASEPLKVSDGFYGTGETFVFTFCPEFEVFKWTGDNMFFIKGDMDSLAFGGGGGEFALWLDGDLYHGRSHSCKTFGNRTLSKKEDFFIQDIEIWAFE
UniProt Q96E52: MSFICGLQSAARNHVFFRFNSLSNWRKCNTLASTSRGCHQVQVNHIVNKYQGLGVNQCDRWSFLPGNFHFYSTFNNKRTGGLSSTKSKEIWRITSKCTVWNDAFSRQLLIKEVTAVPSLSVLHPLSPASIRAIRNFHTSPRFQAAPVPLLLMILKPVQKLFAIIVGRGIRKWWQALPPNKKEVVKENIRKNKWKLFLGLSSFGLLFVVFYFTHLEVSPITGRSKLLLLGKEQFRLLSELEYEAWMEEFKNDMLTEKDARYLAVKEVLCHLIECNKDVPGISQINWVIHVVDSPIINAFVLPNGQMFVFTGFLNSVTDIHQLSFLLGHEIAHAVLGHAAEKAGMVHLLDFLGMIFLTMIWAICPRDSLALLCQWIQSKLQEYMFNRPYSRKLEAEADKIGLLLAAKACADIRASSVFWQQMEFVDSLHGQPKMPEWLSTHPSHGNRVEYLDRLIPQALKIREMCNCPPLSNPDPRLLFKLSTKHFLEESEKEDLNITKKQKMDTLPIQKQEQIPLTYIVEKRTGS
UniProt Q9BW91: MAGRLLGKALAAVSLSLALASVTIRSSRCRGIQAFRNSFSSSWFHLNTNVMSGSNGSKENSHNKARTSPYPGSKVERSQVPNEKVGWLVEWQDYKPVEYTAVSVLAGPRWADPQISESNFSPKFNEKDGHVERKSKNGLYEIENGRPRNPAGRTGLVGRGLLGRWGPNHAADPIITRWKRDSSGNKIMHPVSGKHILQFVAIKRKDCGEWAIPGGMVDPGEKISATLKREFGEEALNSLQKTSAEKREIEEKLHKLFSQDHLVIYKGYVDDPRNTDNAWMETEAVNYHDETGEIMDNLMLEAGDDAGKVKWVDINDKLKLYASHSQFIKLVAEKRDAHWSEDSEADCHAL
UniProt O15504: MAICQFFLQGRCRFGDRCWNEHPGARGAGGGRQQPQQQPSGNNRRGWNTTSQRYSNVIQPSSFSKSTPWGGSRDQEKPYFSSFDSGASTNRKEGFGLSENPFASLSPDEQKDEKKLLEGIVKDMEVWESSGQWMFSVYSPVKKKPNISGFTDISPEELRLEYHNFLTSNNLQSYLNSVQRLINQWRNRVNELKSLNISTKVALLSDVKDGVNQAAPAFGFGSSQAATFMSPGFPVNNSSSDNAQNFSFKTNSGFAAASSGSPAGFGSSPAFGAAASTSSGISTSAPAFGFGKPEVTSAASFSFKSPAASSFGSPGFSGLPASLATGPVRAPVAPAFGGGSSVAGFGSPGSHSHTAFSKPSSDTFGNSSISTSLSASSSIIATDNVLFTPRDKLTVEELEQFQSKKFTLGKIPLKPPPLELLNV

Tests used:
Assay in all cases: log2 fold change, soluble protein after heating vs DMSO (PISA); higher = thermal stabilisation; K562 cells, 10 uM, 30 min; active = over 0.2 and 3.5 SD of the protein, either way, in both replicates (recomputed)
[1] = compound: C#Cc1cccc(Nc2ncnc3cc(OCCOC)c(OCCOC)cc23)c1 [erlotinib]
How it was run: (§1)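 K562 cells (2×10^6 cells/mL) were treated with 10 μM compound for 30 min, and aliquots were heated for 3 min over 48°C-58°C. Pooled aliquots were extracted in PBS with 0.5% NP-40 at 4°C, and the supernatant after 21,000xg for 90 min was measured by TMTpro 16plex LC-MS/MS with channel sums equalised. Reported thermal stability, relative to control samples and from duplicates, is a log2 fold change.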

[2] = compound: C/C(=N\NC(=O)C1=CC(=CC=C1)S(=O)(=O)N2CCOCC2)/C3=C(C=CC(=C3)Cl)O
How it was run: as §1

[3] = compound: C1=CC(=C(C=C1Cl)C2=NC3=NC=CN=C3C(=N2)NC4=CC=NC=C4)F
How it was run: as §1

[4] = compound: C1=CC(=CC=C1C2=NC3=C(N2)C=C(C=C3)C(=O)N)OC4=CC=C(C=C4)Cl
How it was run: as §1

[5] = compound: C1=CC2=C(C=CC(=C2)/C=C\3/C(=O)NC(=NCC4=CC=CS4)S3)N=C1
How it was run: as §1

[6] = compound: C1=CC2=NC=CN=C2C=C1/C=C/3\C(=O)NC(=O)S3
How it was run: as §1

[7] = compound: C1=CC=C(C=C1)C2=NC(=C(N2)C3=CC=NC=C3)C4=CC(=C(C=C4)Cl)O
How it was run: as §1

[8] = compound: C1=CC=C2C(=C1)C3=NNC4=CC=CC(=C43)C2=O
How it was run: as §1

[9] = compound: C1CCN(C1)C(=O)NC2=CC=CC(=C2)NC3=NC=C(C(=N3)NCCC4=CN=CN4)Br
How it was run: as §1

[10] = compound: C1CN(CCC1(CC2=CC=C(C=C2)Cl)N)C3=NC=NC4=C3C=CN4
How it was run: as §1

Measured: log2 fold change

NSUN2 (UniProt Q08J23)
inactive: [1] -0.017 | [2] 0.137 | [3] -0.002 | [4] 0.038 | [5] -0.018 | [6] 0.006 | [7] -0.052 | [8] -0.112 | [9] -0.067 | [10] 0.064

P4HA1 (UniProt P13674)
inactive: [1] -0.062 | [2] -0.118 | [3] -0.051 | [4] 0.03 | [5] -0.002 | [6] -0.022 | [7] -0.006 | [8] -0.013 | [9] -0.044 | [10] -0.042

OSBPL9 (UniProt Q96SU4)
inactive: [1] 0.039 | [2] 0.063 | [3] -0.115 | [4] -0.01 | [5] 0.168 | [6] -0.047 | [7] 0.188 | [8] 0.02 | [9] -0.056 | [10] -0.238

NSMCE3 (UniProt Q96MG7)
inactive: [1] -0.032 | [2] 0.018 | [3] 0.04 | [4] 0.053 | [5] 0.028 | [6] 0.019 | [7] -0.012 | [8] 0.029 | [9] 0.01 | [10] 0.048

NUDT1 (UniProt P36639)
active: [10] 1.01
inactive: [1] 0.164 | [2] -0.018 | [3] 0.135 | [4] -0.068 | [5] 0 | [6] -0.032 | [7] 0.055 | [8] 0.187 | [9] -0.009

OTUB1 (UniProt Q96FW1)
inactive: [1] -0.003 | [2] 0.082 | [3] 0.067 | [4] -0.021 | [5] 0.003 | [6] 0.02 | [7] 0.072 | [8] 0.018 | [9] -0.004 | [10] -0.001

NUDT12 (UniProt Q9BQG2)
inactive: [1] 0.018 | [2] 0.025 | [3] 0.059 | [4] -0.076 | [5] 0.015 | [6] 0.027 | [7] 0.013 | [8] 0.104 | [9] -0.039 | [10] -0.034

NUP155 (UniProt O75694)
inactive: [1] 0.022 | [2] 0.108 | [3] 0.013 | [4] 0.018 | [5] 0.03 | [6] 0.014 | [7] 0.062 | [8] -0.076 | [9] 0.005 | [10] -0.037

OSGEP (UniProt Q9NPF4)
inactive: [1] 0.018 | [2] 0.021 | [3] 0.02 | [4] -0.016 | [5] 0.015 | [6] 0.005 | [7] 0.006 | [8] 0.014 | [9] 0 | [10] 0.016

OGFR (UniProt Q9NZT2)
inactive: [1] 0.009 | [2] 0.207 | [3] -0.011 | [4] 0.107 | [5] 0.131 | [6] -0.157 | [7] 0.027 | [8] -0.085 | [9] 0.028 | [10] -0.132

NTMT1 (UniProt Q9BV86)
inactive: [1] 0.039 | [2] 0.13 | [3] 0.086 | [4] 0.002 | [5] 0.039 | [6] 0.032 | [7] 0.006 | [8] 0.086 | [9] -0.101 | [10] 0.151

NUMBL (UniProt Q9Y6R0)
inactive: [1] -0.001 | [2] 0.021 | [3] -0.026 | [4] -0.095 | [5] 0.085 | [6] -0.047 | [7] 0.042 | [8] 0.056

2 entries picked at random from those above, as already listed:
OSGEP (UniProt Q9NPF4)
inactive: [1] 0.018 | [2] 0.021 | [3] 0.02 | [4] -0.016 | [5] 0.015 | [6] 0.005 | [7] 0.006 | [8] 0.014 | [9] 0 | [10] 0.016

NUMBL (UniProt Q9Y6R0)
inactive: [1] -0.001 | [2] 0.021 | [3] -0.026 | [4] -0.095 | [5] 0.085 | [6] -0.047 | [7] 0.042 | [8] 0.056

The results go on:

NUP35 (UniProt Q8NFH5)
inactive: [1] 0.064 | [2] -0.011 | [3] 0.045 | [4] -0.012 | [5] 0.036 | [6] 0.039 | [7] -0.024 | [8] -0.127 | [9] -0.073 | [10] -0.061

NUDT16 (UniProt Q96DE0)
inactive: [1] 0.081 | [2] 0 | [3] 0.111 | [4] 0.01 | [5] -0.034 | [6] -0.004 | [7] 0.014 | [8] 0.026 | [9] -0.085 | [10] 0.081

OIP5 (UniProt O43482)
inactive: [1] -0.015 | [2] 0.001 | [3] -0.048 | [4] 0.014 | [5] 0.063 | [6] 0.035 | [7] -0.068 | [8] -0.045 | [9] -0.02 | [10] 0.043

OCRL (UniProt Q01968)
inactive: [1] 0.034 | [2] 0.009 | [3] -0.107 | [4] -0.173 | [5] 0.038 | [6] -0.006 | [7] 0.029 | [8] -0.053 | [9] 0.049 | [10] -0.027

OGT (UniProt O15294)
inactive: [1] -0.033 | [2] 0.055 | [3] 0 | [4] 0.039 | [5] 0.025 | [6] -0.013 | [7] -0.051 | [8] -0.014 | [9] -0.042 | [10] 0

OXSM (UniProt Q9NWU1)
inactive: [1] -0.079 | [2] 0.024 | [3] 0.005 | [4] 0.055 | [5] -0.052 | [6] -0.001 | [7] 0.053 | [8] -0.034 | [9] -0.042 | [10] 0.019

OSBP (UniProt P22059)
inactive: [1] -0.059 | [2] 0.111 | [3] 0.063 | [4] 0.109 | [5] -0.009 | [6] 0.019 | [7] -0.027 | [8] -0.042 | [9] -0.001 | [10] 0.013

OXR1 (UniProt Q8N573)
inactive: [1] 0.029 | [2] 0.067 | [3] 0.011 | [4] 0.002 | [5] 0.023 | [6] 0.007 | [7] -0.043 | [8] -0.062 | [9] -0.03 | [10] 0.056

NUDT19 (UniProt A8MXV4)
inactive: [1] -0.031 | [2] 0.024 | [3] -0.009 | [4] -0.012 | [5] 0.035 | [6] 0.015 | [7] -0.002 | [8] -0.023 | [9] -0.038 | [10] 0.032

OGFOD1 (UniProt Q8N543)
inactive: [1] 0.043 | [2] -0.18 | [3] 0.02 | [4] 0.007 | [5] 0.015 | [6] 0.11 | [7] -0.01 | [8] 0.014 | [9] 0.007 | [10] 0.03

OMA1 (UniProt Q96E52)
inactive: [1] 0.077 | [2] 0.029 | [3] 0.051 | [4] 0.019 | [5] 0.042 | [6] 0.133 | [7] 0.026 | [8] -0.027 | [9] -0.148 | [10] 0.094

NUDT9 (UniProt Q9BW91)
inactive: [1] -0.047 | [2] 0.111 | [3] 0.027 | [4] 0.085 | [5] 0.033 | [6] 0.049 | [7] -0.029 | [8] -0.009 | [9] 0.037 | [10] -0.009

NSUN6 (UniProt Q8TEA1)
inactive: [1] 0.016 | [2] 0.053 | [3] 0.063 | [4] 0.045 | [5] 0.017 | [6] -0.011 | [7] 0.03 | [8] -0.001 | [9] -0.025 | [10] -0.02

NUTF2 (UniProt P61970)
inactive: [1] -0.064 | [2] 0.1 | [3] 0.012 | [4] 0.028 | [5] 0.079 | [6] 0.032 | [7] 0.105 | [8] -0.001 | [9] -0.077 | [10] -0.064

OSTF1 (UniProt Q92882)
inactive: [1] 0.058 | [2] 0.094 | [3] 0.035 | [4] 0.016 | [5] -0.095 | [6] 0.051 | [7] 0.028 | [8] 0.131 | [9] -0.061 | [10] -0.072

OPA1 isoform 2 (UniProt O60313)
inactive: [1] 0.041 | [2] 0.081 | [3] 0.031 | [4] -0.021 | [5] 0.07 | [6] 0.01 | [7] 0.126 | [8] 0.027 | [9] -0.006 | [10] 0.078

NUP42 (UniProt O15504)
inactive: [1] -0.096 | [2] -0.004 | [3] -0.722 | [4] 0.128 | [5] -0.147 | [6] -0.16 | [7] -0.003 | [8] -0.098 | [9] 0.189 | [10] 0.137

OTC (UniProt P00480)
inactive: [1] 0.24 | [2] -0.232 | [3] -0.079 | [4] -0.111 | [5] 0.325 | [6] 0.04 | [7] -0.225 | [8] -0.065 | [9] 0.253 | [10] -0.058
